Laboratory results reported in article PMC4414194.
Results are given in words; binding and its absence hold for the method and conditions named. In cells and extracts the contact can be indirect. Some results given as binding are weak or reduced against the parent protein; the word gives no strength. One block for each substance: values may come before it.

By UniProt entry, the sequences of proteins in these tests, tags left out.
UniProt P15976: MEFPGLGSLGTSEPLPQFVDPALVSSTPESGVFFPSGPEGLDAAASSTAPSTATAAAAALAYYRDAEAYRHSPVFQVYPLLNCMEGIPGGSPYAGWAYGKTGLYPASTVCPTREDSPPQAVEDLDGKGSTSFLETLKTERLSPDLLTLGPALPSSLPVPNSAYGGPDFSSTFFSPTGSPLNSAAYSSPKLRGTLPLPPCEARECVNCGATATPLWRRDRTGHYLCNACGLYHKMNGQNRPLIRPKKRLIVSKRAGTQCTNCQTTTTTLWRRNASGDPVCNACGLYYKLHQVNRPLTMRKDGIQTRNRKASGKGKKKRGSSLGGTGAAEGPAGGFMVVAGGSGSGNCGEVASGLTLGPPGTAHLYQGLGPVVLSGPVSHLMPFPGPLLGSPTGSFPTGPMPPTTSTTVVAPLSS
UniProt O15379: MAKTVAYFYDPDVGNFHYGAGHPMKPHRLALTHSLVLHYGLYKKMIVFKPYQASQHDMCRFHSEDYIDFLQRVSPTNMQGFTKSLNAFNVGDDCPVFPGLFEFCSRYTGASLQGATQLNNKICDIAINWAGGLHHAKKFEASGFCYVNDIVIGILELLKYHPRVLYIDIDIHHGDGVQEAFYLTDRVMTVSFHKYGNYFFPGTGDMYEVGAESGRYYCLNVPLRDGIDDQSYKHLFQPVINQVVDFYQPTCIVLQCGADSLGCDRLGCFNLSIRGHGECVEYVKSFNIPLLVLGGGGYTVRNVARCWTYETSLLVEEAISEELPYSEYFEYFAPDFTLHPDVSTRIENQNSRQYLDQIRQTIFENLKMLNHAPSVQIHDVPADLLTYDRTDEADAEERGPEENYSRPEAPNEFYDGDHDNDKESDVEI
UniProt P56524: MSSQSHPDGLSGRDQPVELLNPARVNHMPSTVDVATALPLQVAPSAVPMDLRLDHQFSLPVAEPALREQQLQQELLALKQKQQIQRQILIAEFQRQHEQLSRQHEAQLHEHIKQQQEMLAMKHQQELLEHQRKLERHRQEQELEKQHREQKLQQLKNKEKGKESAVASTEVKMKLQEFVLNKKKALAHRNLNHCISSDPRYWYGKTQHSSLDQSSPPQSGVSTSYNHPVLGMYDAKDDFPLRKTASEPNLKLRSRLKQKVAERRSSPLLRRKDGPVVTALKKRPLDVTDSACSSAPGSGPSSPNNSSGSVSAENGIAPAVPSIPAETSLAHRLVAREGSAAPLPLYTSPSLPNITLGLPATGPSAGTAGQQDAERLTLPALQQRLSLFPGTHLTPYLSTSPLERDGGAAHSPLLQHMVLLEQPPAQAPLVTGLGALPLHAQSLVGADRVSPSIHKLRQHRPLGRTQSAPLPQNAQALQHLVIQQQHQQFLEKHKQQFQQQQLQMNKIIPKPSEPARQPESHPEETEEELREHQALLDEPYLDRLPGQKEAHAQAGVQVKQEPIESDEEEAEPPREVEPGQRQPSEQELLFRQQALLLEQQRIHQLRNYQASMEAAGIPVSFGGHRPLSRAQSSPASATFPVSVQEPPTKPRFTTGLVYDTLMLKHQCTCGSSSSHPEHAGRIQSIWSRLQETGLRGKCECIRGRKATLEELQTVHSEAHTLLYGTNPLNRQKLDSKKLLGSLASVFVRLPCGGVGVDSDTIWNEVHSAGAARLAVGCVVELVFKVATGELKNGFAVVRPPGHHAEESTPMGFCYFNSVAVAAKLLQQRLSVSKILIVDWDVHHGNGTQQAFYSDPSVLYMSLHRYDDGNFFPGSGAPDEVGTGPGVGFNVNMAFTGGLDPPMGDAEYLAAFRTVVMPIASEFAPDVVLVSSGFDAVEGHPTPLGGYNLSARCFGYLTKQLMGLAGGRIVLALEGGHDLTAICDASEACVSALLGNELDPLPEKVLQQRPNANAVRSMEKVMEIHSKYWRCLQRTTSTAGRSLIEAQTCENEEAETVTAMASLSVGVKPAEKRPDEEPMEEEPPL

How the values were obtained:
[1] = molecular target: GFP-GATA1 (expressed in HEK-293 cells) (human) (UniProt P15976); assay: co-IP; HEK-293 cells transfected with GFP-GATA1 (wt or S161A S187A) and Flag-HDAC3/4, with or without Myc-PAK5 wt/KM; lysates immunoprecipitated with anti-GFP antibody, immunoblotted with anti-Flag and anti-GFP
[2] = molecular target: GFP-GATA1 (expressed in MCF-7 cells) (human) (UniProt P15976); assay: co-IP; MCF-7 cells stably infected with shPAK5 (PAK5 knock-down) or control, co-transfected with plasmids; lysates immunoprecipitated with anti-GFP antibody, immunoblotted with anti-Flag and anti-GFP
[3] = molecular target: GST-GATA1 fusion protein (human) (UniProt P15976); assay: pull-down; GST pull-down in vitro: GST-HDAC3, GST-HDAC4 or GST-GATA1 fusion protein as bait, incubated with in vitro translated Myc-GATA1 or Flag-HDAC3/4; only the target purified
[4] = molecular target: Flag-HDAC3 (expressed in HEK-293 cells) (human) (UniProt O15379); assay: co-IP; HEK-293 cells transfected with GFP-GATA1 and Flag-HDAC3 or Flag-HDAC4; lysates immunoprecipitated with Flag antibodies, immunoblotted with Flag and GFP antibodies
[5] = molecular target: Flag-HDAC4 (expressed in HEK-293 cells) (human) (UniProt P56524); assay: as above
[6] = molecular target: GST-HDAC3 fusion protein (human) (UniProt O15379); assay: pull-down; GST pull-down in vitro: GST-HDAC3, GST-HDAC4 or GST-GATA1 fusion protein as bait, incubated with in vitro translated Myc-GATA1 or Flag-HDAC3/4; only the target purified
[7] = molecular target: GST-HDAC4 fusion protein (human) (UniProt P56524); assay: as above

Substance: Flag-HDAC3 (expressed in HEK-293 cells) (from UniProt O15379 1-428)
- binding [1]: binds

Substance: GFP-GATA1 (expressed in HEK-293 cells) (from UniProt P15976 1-413)
- binding [4]: binds
- binding [5]: binds

Other lines, results leading:

- binding [2]: binds
Substance: Flag-HDAC3 (expressed in MCF-7 cells) (from UniProt O15379 1-428)

- binding [3]: binds
Substance: Flag-HDAC3 (in vitro translated) (from UniProt O15379 1-428)

- binding [6]: binds
- binding [7]: binds
Substance: Myc-GATA1 (in vitro translated) (from UniProt P15976 1-413)
